This note sets out measurements from PubChem BioAssay (NCATS).

Each structure is given as a SMILES string. Some of the results follow. The main result of the screen is listed elsewhere. These columns were measured beside it and carry no call. Compounds called inactive in the main read-out are mostly missing here. Potencies come from curve fits of mixed quality, noted in brackets.

The test can be described thus: qHTS for identification of novel therapeutic agents for treatment of microphthalmiaassociated transcription factor (MiT) renal cell carcinoma (RCC) (AID 1963991). As to conditions: CellTiter-Glo, 48 h; for z-score: stronger effect = lower value. The method, boiled down: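 UOK109/UOK124/UOK145 (TFE3 fusions, three partners); 500 cells/well; MIPE v4.0, 1912 cpds, 11 conc.; 48 h, 37 C; CellTiter-Glo, 15 min RT; lum. Norm.: DMSO 100%, empty 0%.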

The mark [1] stands for this setting: TFE3-RCC UOK109 viability, measured here: UOK109 Z-AUC.
The mark [2] stands for this setting: TFE3-RCC viability, measured here: UOK124 Z-AUC.
Setting [3] is: TFE3-RCC viability, measured here: UOK145 Z-AUC.
The mark [4] stands for this setting: TFE3-RCC viability, measured here: UOK145 cell viability.
The mark [5] stands for this setting: TFE3-RCC viability, measured here: UOK124 cell viability.

Broadly, the AC50 is the concentration giving half of the maximal activity seen. `Cc1cc2c(F)c(Oc3ncnn4cc(OC[C@@H](C)O)c(C)c34)ccc2[nH]1`: the z-score under setting [1] was 0.408, the z-score under setting [2] came to 0.26 and the z-score under setting [3] was determined as 0.317. For the same molecule, the AC50 under setting [4] was 13.2 µM [falling, partial curve].

As for `C[C@H](CCC(=O)O)[C@H]1CC[C@H]2[C@H]3[C@@H](CC[C@]12C)[C@@]1(C)CC[C@@H](O)C[C@H]1C[C@@H]3O`, the z-score stood at 0.00683 under setting [1], 0.504 under setting [2] and 0.48 under setting [3]. Moreover, the half-maximal activity concentration (AC50) under setting [4] is 13.2 µM [falling, partial curve, poor fit].

In the case of `C[C@@H](NCc1cc2ccccc2[nH]1)c1cccc2ccccc12`, the z-score was found to be 0.486 under setting [1], 0.198 under setting [2] and 0.146 under setting [3]. For the same molecule, under setting [5], the half-maximal activity concentration (AC50) was 0.00105 µM [rising, full curve, poor fit].

`Cc1ccc(C(C)(O)c2nc3ccccc3s2)c(C)c1` (stereo not given) gave a z-score under setting [1] of -0.255, a z-score under setting [2] of 0.741 and a z-score under setting [3] of -0.0676. For the same molecule, the concentration at half-maximal activity (AC50) under setting [4] is 20.9 µM [falling, partial curve, poor fit].

Consider `CCC(=O)O[C@]1(C(=O)SCF)[C@H](C)C[C@H]2[C@@H]3C[C@H](F)C4=CC(=O)C=C[C@]4(C)[C@@]3(F)[C@@H](O)C[C@@]21C`, for which the z-score reads like this: under setting [1], 0.073; under setting [2], 0.748; under setting [3], -0.224. Moreover, the AC50 under setting [4] is 37.2 µM [falling, single point].

As to `Cc1cccc(-c2[nH]ncc2-c2ccc3ncccc3n2)n1`, the z-score reads like this: under setting [1], 1.13; under setting [2], 0.853; under setting [3], 0.694. Under setting [5], the concentration at half-maximal activity (AC50) is 0.0372 µM [rising, full curve].

As for `CN1CC(=O)NC1=NC(=O)Nc1cccc(Cl)c1`, the z-score reads like this: under setting [1], 0.524; under setting [2], 0.6; under setting [3], 0.421. Besides, the concentration at half-maximal activity (AC50) under setting [5] was 20.9 µM [falling, partial curve].

`Cc1ccc([C@@H]2O[C@H](CO)[C@@H](O)[C@H](O)[C@@H]2O)cc1Cc1ccc(-c2ccc(F)cc2)s1` had a z-score under setting [1] of 0.469, a z-score under setting [2] of 0.723 and a z-score under setting [3] of 0.576. For the same molecule, the AC50 under setting [5] is 26.4 µM [falling, single point].

In turn, `CNC1CCCN(c2c(F)cc3c(=O)c(C(=O)O)cn(C4CC4)c3c2OC)C1` (stereo not given) displayed a z-score under setting [1] of 0.529, a z-score under setting [2] of 0.732 and a z-score under setting [3] of 0.808.

With `OCc1ccccc1O[C@@H]1O[C@H](CO)[C@H](O)[C@H](O)[C@H]1O`, the z-score by setting is: under setting [1], 0.781; under setting [2], 0.556; under setting [3], 0.66. In addition, under setting [5], the half-maximal activity concentration (AC50) was 0.00332 µM [rising, full curve].

On to `Clc1ccc2nsnc2c1NC1=NCCN1`, for which the z-score is 0.914 under setting [1], 0.446 under setting [2] and -1.86 under setting [3]. For the same molecule, under setting [4], the half-maximal activity concentration (AC50) was 23.5 µM [falling, partial curve, poor fit].

As to `COc1cc(F)c(C(C)C)cc1-c1ccc(C(F)(F)F)cc1CN1C(=O)O[C@H](c2cc(C(F)(F)F)cc(C(F)(F)F)c2)[C@@H]1C`, the z-score by setting is: under setting [1], 0.538; under setting [2], 0.481; under setting [3], -0.0958. Also, under setting [4], the AC50 was 23.5 µM [falling, partial curve, poor fit].

Regarding `CCC[C@@H](NC(=O)[C@@H]1[C@H]2CCC[C@@H]2CN1C(=O)[C@@H](NC(=O)[C@@H](NC(=O)c1cnccn1)C1CCCCC1)C(C)(C)C)C(=O)C(=O)NC1CC1`, the z-score is 0.631 under setting [1], 0.657 under setting [2] and -1.64 under setting [3]. Under setting [5], the half-maximal activity concentration (AC50) was 23.5 µM [falling, single point].

On to `CC1(C)O[C@H]2C[C@@H]3[C@H]4CCC5=CC(=O)C=C[C@]5(C)[C@@]4(F)[C@@H](O)C[C@]3(C)[C@]2(C(=O)CO)O1`, for which the z-score is, setting by setting: under setting [1], -0.476; under setting [2], 0.597; under setting [3], 2.65. For the same molecule, under setting [4], the concentration at half-maximal activity (AC50) is 33.2 µM [falling, single point].

`COC(=O)C1=CO[C@@H](O)[C@@H]2C(CO)=CC[C@@H]12` came in with a z-score under setting [1] of 1.36, a z-score under setting [2] of 0.111 and a z-score under setting [3] of 0.619. Moreover, the half-maximal activity concentration (AC50) under setting [4] was 20.9 µM [falling, partial curve, poor fit].

Turning to `Cc1cc(C=c2sc3nc4ccccc4n3c2=O)c(C)n1-c1ccccc1`, the z-score is, setting by setting: under setting [1], 0.425; under setting [2], 1.09; under setting [3], 0.542. The AC50 under setting [5] was 0.00209 µM [rising, full curve, poor fit].

Consider `Clc1ccc(CCC(Cn2ccnc2)Sc2c(Cl)cccc2Cl)cc1` (stereo not given), for which the z-score is 0.118 under setting [1], 0.0548 under setting [2] and 0.0333 under setting [3]. Moreover, the AC50 under setting [5] is 33.2 µM [falling, single point].

Take `COC(=O)[C@H](c1ccccc1Cl)N1CCc2sccc2C1`: the z-score runs as follows: under setting [1], 0.448; under setting [2], 0.253; under setting [3], 0.708. Besides, the AC50 under setting [5] was 13.2 µM [falling, partial curve].

As for `CN1CCN(c2c(F)cc3c(=O)c(C(=O)O)cn4c3c2OCN4C)CC1`, the z-score is, setting by setting: under setting [1], -0.574; under setting [2], 0.652; under setting [3], -1.2. Besides, the AC50 under setting [5] was 0.00105 µM [falling, full curve, poor fit].

On to `CCCCOc1ccc(C(=O)Nc2ccc(F)cc2F)cc1`, for which the z-score is, setting by setting: under setting [1], 0.623; under setting [2], 0.067; under setting [3], 0.187. Moreover, the AC50 under setting [5] is 0.00187 µM [rising, full curve].

`CC(C)(C)[N+]([O-])=Cc1ccc(S(=O)(=O)O)cc1S(=O)(=O)O`: the z-score is, setting by setting: under setting [1], 1.19; under setting [2], 0.421; under setting [3], 0.347.

`Clc1ccc2c(N3CCN(CCCN4CCN(c5ccnc6cc(Cl)ccc56)CC4)CC3)ccnc2c1`: the z-score was found to be 0.653 under setting [1], 0.881 under setting [2] and 0.759 under setting [3]. The AC50 under setting [5] was 0.000645 µM [rising, full curve].

As to `O=C(NOC[C@H](O)CO)c1ccc(F)c(F)c1Nc1ccc(I)cc1F`, the z-score by setting is: under setting [1], -1.33; under setting [2], -1.21; under setting [3], 0.462. The AC50 under setting [4] is 23.5 µM [falling, partial curve].
